The text below walks through data of article PMC10626419, “DONSON is required for CMG helicase assembly in the mammalian cell cycle” (EMBO Reports, 2023).

The chains behind the UniProt entries cited, without tags or fusion partners.
UniProt Q99LZ3: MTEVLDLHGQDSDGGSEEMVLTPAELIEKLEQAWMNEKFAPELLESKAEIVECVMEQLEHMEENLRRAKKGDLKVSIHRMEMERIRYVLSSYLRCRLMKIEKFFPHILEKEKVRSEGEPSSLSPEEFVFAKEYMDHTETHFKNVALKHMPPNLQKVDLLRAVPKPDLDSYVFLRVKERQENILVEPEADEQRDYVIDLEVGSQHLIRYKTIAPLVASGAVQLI
UniProt P97310: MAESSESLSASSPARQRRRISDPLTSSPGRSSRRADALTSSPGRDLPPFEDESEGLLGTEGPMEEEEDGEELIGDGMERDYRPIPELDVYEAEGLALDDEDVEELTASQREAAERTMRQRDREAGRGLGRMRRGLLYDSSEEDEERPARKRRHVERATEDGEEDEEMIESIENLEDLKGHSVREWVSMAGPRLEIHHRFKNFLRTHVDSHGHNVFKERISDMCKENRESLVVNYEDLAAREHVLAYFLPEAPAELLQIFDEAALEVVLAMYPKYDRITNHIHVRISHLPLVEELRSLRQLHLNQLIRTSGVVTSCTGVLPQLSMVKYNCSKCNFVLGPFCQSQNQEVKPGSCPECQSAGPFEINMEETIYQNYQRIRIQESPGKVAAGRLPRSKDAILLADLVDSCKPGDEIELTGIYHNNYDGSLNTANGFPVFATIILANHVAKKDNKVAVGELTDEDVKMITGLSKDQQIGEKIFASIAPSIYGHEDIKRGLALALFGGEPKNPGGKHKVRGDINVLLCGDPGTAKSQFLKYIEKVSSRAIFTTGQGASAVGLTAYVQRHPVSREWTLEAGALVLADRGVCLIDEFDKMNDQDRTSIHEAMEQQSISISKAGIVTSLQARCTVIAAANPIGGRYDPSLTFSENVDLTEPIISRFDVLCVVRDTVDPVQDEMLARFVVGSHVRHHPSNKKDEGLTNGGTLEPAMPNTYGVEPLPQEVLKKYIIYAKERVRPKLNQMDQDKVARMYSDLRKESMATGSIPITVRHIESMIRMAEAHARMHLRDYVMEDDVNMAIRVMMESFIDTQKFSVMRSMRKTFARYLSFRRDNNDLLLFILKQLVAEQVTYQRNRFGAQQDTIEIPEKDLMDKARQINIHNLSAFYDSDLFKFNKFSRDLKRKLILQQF

In assay [1] the target is T1, TAP‐PSF1 (mouse (endogenous in mouse ES cells)) (UniProt Q9CZ15).
T1 sequence: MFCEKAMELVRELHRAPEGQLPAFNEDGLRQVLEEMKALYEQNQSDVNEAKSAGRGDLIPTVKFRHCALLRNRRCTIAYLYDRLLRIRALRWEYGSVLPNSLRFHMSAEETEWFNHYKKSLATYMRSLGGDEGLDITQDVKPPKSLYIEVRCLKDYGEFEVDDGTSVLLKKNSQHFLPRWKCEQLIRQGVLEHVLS
Nature of the assay: co-IP; TAP‐PSF1 isolated on magnetic beads coupled to rabbit IgG, 2 h at 4°C, from nuclease-treated native extracts of mouse ES cells; cells untreated or with p97 inhibitor CB‐5083 (Fig 1A), TAP‐Psf1 cells with or without 250 nM AGB1 and untreated TAP‐Psf1 BromoTag‐Donson cells (Fig 3A); immunoblotting. Background: Immunoblotting shows a protein as a band on a membrane.

In assay [2] the target is TAP‐SLD5 (mouse (endogenous in mouse ES cells)) (UniProt Q99LZ3). Nature of the assay: co-IP; as a5, cells arrested in mitosis with STLC, with or without AGB1 (Fig 3C, lanes 5–6).
Assay [3] has as its target T1, TAP‐PSF1 (mouse (endogenous in mouse ES cells)). Nature of the assay: co-IP; as a1, TAP‐Psf1 BromoTag‐Donson cells incubated with 250 nM AGB1 to degrade BromoTag‐DONSON (Fig 3A, lanes 10–12).
The target in assay [4] is TAP‐SLD5 (mouse (endogenous in mouse ES cells)) (UniProt Q99LZ3). Description: co-IP; TAP‐SLD5 immunoprecipitated from extracts of BromoTag‐Donson TAP‐Sld5 mouse ES cells synchronised in mitosis (thymidine, then STLC) and released for 6 h into S‐phase, without AGB1; GINS subunits monitored throughout the experiment (Fig 3C).
In assay [5] the target is T1, TAP‐PSF1 (mouse (endogenous in mouse ES cells)). Nature of the assay: co-IP; TAP‐PSF1 isolated on magnetic beads coupled to rabbit IgG, 2 h at 4°C, from nuclease-treated native extracts of mouse ES cells; cells untreated or with p97 inhibitor CB‐5083 (Fig 1A), TAP‐Psf1 cells with or without 250 nM AGB1 and untreated TAP‐Psf1 BromoTag‐Donson cells (Fig 3A); immunoblotting. The source holds these as a separate data set.

No constants are given. Whether binding was seen depends on the method and setting. Binding seen in cells or lysates may run through a third protein. Some binding calls cover weakened binding; strength is not graded here.

Turning to SLD5 (from UniProt Q99LZ3 1-223), in assay [1], the binding result is “binds”.

Consider MCM2 (from UniProt P97310 1-904), for which the binding entry in assay [2] is listed as “no binding (condition: cells arrested in mitosis (STLC))”; in assay [3] it was “binds weakly”; in assay [4], “binds”; in assay [1], “binds”.

B1: Recombinant mouse DONSON (natural protein, UniProt Q9QXP4 1-560, looked up)
chain: MAVSVPGYSPSFKRPPETVRLRRKRSRDHGAAVPASLPEPAPRRAALAAGLPLRPFPTAGGRGGAAATIARRNPFARLDNRPRVSDEASEEPLRGPQGASGPLLDSNEENNLLWEDTSSHERTGTELSQSQRVSLSESDTWSSDGTELPVDWSIKTRLLFTSSQPFSWADHLKAQEEAQGLVQHCRATEVTLPQSIQDPKLSTALRCAFQQALVYWLHPAFSWLPLFPRIGADRKMAAKTSPWSADETLQHALMSDWSVSFTSLYNLLKTKLCPYFYVCSYQFTVLFRAAGLAGSSVITALISPTTRGLREAMRNEGIEFSLPLLEEIGHKKKVRDPSLESEEEQAVSDEDEEESFSWLEEIGVQDQIKKPDVISIKLRKEKHEVQMDHRPESVVLVKGLNTFKLLNFLINCKSLVATSGAQAGLPPTLLSPIAFRGASMQMLKARSSNVKTQALSGYRDKFSLDITGPVMPHALHSMSMLLRSSQRGSFSAGLYAHEPTAVFNVGLSLDKELDRKVAREDLANCGLHPKTLEQLSQRPVLGKSSLRSVEMSDYILSWRS
notes: DONSON, mouse; also called His‐SUMO‐DONSON (before cleavage); source: E. coli Rosetta (DE3) pLys, purified (Ni‐NTA, ULP1 cleavage, Superdex 200)
On to B1, for which the binding entry in assay [5] is “binds”.

B2: CDC45 (protein, UniProt Q9Z1X9 1-566)
chain: MFVTDFRKEFYETVHNQRVLLFVASDVDALCACKILQALFQCDHVQYTLVPVSGWQELETAYLEHKEQFSYFILINCGANVDLLDILQPDEDSIFFVCDTHRPVNVVNVYNDTQIKLLIKQEDDLEVPAYDDIFRDEAEDEDLSDSDGDGSEPSEKRTRLEEEIVERNRKRRQRREWEARRKDILFDYEQYEYYGTSSAMVMFDLAWMMSKDLNDMLWWAIVGLTDQWVHDKITQMKYVTDVGILQRHVSRHNHRNEAEENMLSVDCTRISFEYDLCLVLYQHWSLHESLYNTSYTAARFKLWSVHGQKRLQEFLADMGLPLKQVKQKFQSMDVSLKGNLREMIEESANKFGMKDMRVQTFSIQFGFKHKFLASDVVFATMSLMESPEKDGSGTDHFIQALDSLSRSNLDKLYLGLELAKKHLQATQQTIASCLCTNLVTSQGPFLYCSLMEGTPDVTLFSKPASLSLLSRHLLKSFVYSTKNRRCKLLPLVMAAPLSVEQGTVTVVGIPPETDSSDRKNFFGRAFEKAAESTSSRTLHNYFDLSVIELKAEDRSKFLDALVSLLS
For B2, the binding result in assay [2] was “no binding (condition: cells arrested in mitosis (STLC))”; in assay [3], “binds weakly”; in assay [4], “binds”; in assay [5] it was “binds”.

B3: PSF1 (protein, UniProt Q9CZ15 1-196)
chain: MFCEKAMELVRELHRAPEGQLPAFNEDGLRQVLEEMKALYEQNQSDVNEAKSAGRGDLIPTVKFRHCALLRNRRCTIAYLYDRLLRIRALRWEYGSVLPNSLRFHMSAEETEWFNHYKKSLATYMRSLGGDEGLDITQDVKPPKSLYIEVRCLKDYGEFEVDDGTSVLLKKNSQHFLPRWKCEQLIRQGVLEHVLS
For the molecule B3, in assay [4], the binding result was “binds”.

B4: PSF3 (protein, UniProt Q9CY94 1-216)
chain: MSEAYFPVESGALGPEENFLSLDDILMSQEKLPVRVETPMPRLGAFFLERGAGSEPDHPLPQGTKLELPLWLAKGLFDHKRRILSVELPKMYQEGWRTVFSADANVVDLHKMGPHFYGFGSQLLHFDSPENADISQSLLKTFIGRFRRIMDSSQNSYNEDTSALVARLDETERGLFQIGQRSLNDFQSWEKGQASQITASSLVQNYKKRKFTNMED
In the case of B4, the binding entry in assay [4] and in assay [5] was “binds” each time.

B5: MCM6 (protein, UniProt P97311 1-821)
chain: MDLAAAAEPGAGSQHPEVRDEVAEKCQKLFLDFLEEFQGSDGEIKYLQFAEELIRPERNTLVVSFADLEQFNQQLSTTIQEEFYRVYPYLCRALKTFVKDRKEIPFAKDFYVAFQDLPTRHKIRELTSSRIGLLTRISGQVVRTHPVHPELVSGTFLCLDCQTVIKDVEQQFKYTQPNICRNPVCANRKRFLLDTNKSRFVDFQKVRIQETQAELPRGSIPRSLEVILRAEAVESAQAGDRCDFTGALIVVPDVSKLSTPGARAETNSRVSGADGYETEGIRGLRALGVRDLSYRLVFLACHVAPTNPRFGGKELRDEEQTAESIKNQMTVKEWEKVFEMSQDKNLYHNLCTSLFPTIHGNDEVKRGVLLMLFGGVPKTTGEGTSLRGDINVCIVGDPSTAKSQFLKHVDEFSPRAVYTSGKASSAAGLTAAVVRDEESHEFVIEAGALMLADNGVCCIDEFDKMDMRDQVAIHEAMEQQTISITKAGVKATLNARTSILAAANPVSGHYDRSKSLKQNINLSAPIMSRFDLFFILVDECNEVTDYAIARRIVDLHSRIEESIDRVYSLDDIRRYLLFARQFKPKISKESEDFIVEQYKRLRQRDGSGVTKSSWRITVRQLESMIRLSESMARMHCCDEVQPKHVKEAFRLLNKSIIRVETPDVNLDQEEEIQMETDEGQGGVNGHADSPAPVNRFNGSSEDASQETVSKPSLRLGFAEYCRISNLIVLHLRKMEEEEDESALKRSELVNWYLKEIESEIDSEEELINKKTIIEKVVHRLTHYDHVLIELTQAGLKGSSEGSESYEEDPYLVVNPNYLLED
Regarding B5, the binding entry in assay [2] is recorded as “no binding (condition: cells arrested in mitosis (STLC))”; in assay [4], “binds”.
